# Screening data, single-dose tests

Mtb cholesterol medium: 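Whole-cell growth test on Mycobacterium tuberculosis, read after 4 days in a medium based on cholesterol and the lipid DPPC; the read-out is not stated. Concentration: 500 µM. Higher reads as more growth inhibition (inferred: compounds with an IC50 in retests scored well above the rest). Size under these conditions: about 18,000 compounds, about 900 of them at 50% or above in at least one test.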
Mtb glucose medium: 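Phenotypic screen: M. tuberculosis growth, glucose 7H9 medium, 3 days; the read-out is not stated. Tested at 500 µM. The record gives no direction; compounds that gave an IC50 in retests scored well above the rest, so higher reads as more growth inhibition. Of about 18,000 compounds tested this way, about 1,400 (7.9%) reached 50% or more in at least one test.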

The filed quantity is “Percent Effect” (%). The record does not define 0% and 100%; most values in the screen are far below 50% and negative numbers occur (in some assays of this library far below -100). The compounds are a random part of those screened.

SMILES,Mtb cholesterol medium,Mtb glucose medium
NS(=O)(=O)c1ccc2[nH]c(=O)oc2c1,13.21,26.53
NC(=O)c1ccc2c(c1)CCCN2,12.02,22.9
CCC[C@H]1CN(S(=O)(=O)c2ccnn2CCC)C[C@@H]1N,40.3,49.99
CCC(C)(CO)NC(=O)c1sc(COC)nc1C (stereo not drawn),7.078,0.3705
COc1cc(CN)c(Br)cc1O,2.727,19.13
COC(C)(C)C(=O)Cn1cnn(C(C)(C)C)c1=O,-5.642,0.05861
CCNC(=O)CNc1ccc2c(Cl)ccnc2c1F,2.552,0.02141
CC1CN(CCC(=O)NC(N)=O)CCO1 (stereo not drawn),108.6,97.81
COCCS(=O)(=O)NCCCO,-14.18,-5.205
CC(C1CCN(C)CC1)N(C)C(=O)C1CCC1 (stereo not drawn),-6.405,-1.823
O=C(NCC(O)C1CC1)c1ccccc1C(F)(F)F (stereo not drawn),-4.722,-2.839
CCc1nc(CNCC2CCN(CCO)CC2)no1,-0.01333,13.26
CCCn1nnnc1CSCc1ccccn1,0.6952,19.08
Cn1c(=O)c2c(ncn2CCC#N)n(C)c1=O,-2.535,4.242
CN(C)C(=O)OCCn1nc2c(cc1=O)CCCC2,-17.82,10.94
Cc1cccc(CNC(=O)NCCCC(N)=O)c1,-18.86,1.074
CNC(=O)c1nc(C(=O)NCc2ccc(C)o2)cs1,3.899,44.59
CN(CC(N)=O)Cc1cccc(Cl)c1,13.17,17.58
O=C1CC(N2CCOCC2)C(=O)N1C1CCCC1 (stereo not drawn),13.79,8.226
CN(CC(=O)NC1CC1)c1ncnc2c1cnn2C,-14.5,11.27
CNCC(C)C(=O)NC (stereo not drawn),-7.261,0.4358
CN1CCC(NC(=O)c2cc(C3CC3)[nH]n2)CC1,-30.19,-13.17
CN(C)CCN1CCCN(c2ncccc2F)CC1,-4.889,25.8
Cc1ccc(C(=O)NCC(C)(C)N(C)C)o1,-15.3,-0.7409
CSCCC(O)C(=O)N(C)Cc1ccncc1C (stereo not drawn),4.605,2.638
COc1ccc(CN2C[C@H](N(C)C)C[C@H]2CO)cn1,-6.304,-8.752
CC(CO)(CO)NCc1cnn(-c2ccc(Br)cc2)c1,59.74,62.68
CCN1CCN(C(=O)C2(C#N)CCOCC2)CC1,17.72,15.86
Cc1cc(NC(=O)Nc2ccccn2)n(C)n1,3.491,-5.176
FC(F)(F)Cn1cnc(C2COCCN2)n1 (stereo not drawn),-15.3,-4.599
COC(C(=O)NCCn1cccn1)c1ccccc1 (stereo not drawn),11.26,19.16
CCOC(=O)C1CCCN(C(=O)c2onc(C)c2Cl)C1 (stereo not drawn),72.82,75.1
CS(=O)(=O)CCCNC1(c2nccs2)CCCC1,-1.629,5.619
Cc1ccnn1-c1ccc(C(=O)N2CCCC2)cc1,36.81,47.64
NCC(CO)Cc1cc(F)ccc1F (stereo not drawn),3.439,13.7
COCCN(CCN(C)C)C(=O)c1cncc(Br)c1,10.87,9.506
O=C1CCCN1CCN1CCCC(CO)(CC2CC2)C1 (stereo not drawn),-6.111,13.07
CCNC(C)CS(=O)(=O)CC (stereo not drawn),-7.255,-0.3461
Nc1nnc(CCCNC(=O)c2cn[nH]c2)s1,-7.857,-5.401
Cc1cnn(CC(=O)NCCN(C)C2CC2)c1,-17.45,-4.095
CC(N)Cc1ccco1 (stereo not drawn),-11.12,-1.14
CCCS(=O)(=O)NCCOc1ccc(C#N)cc1,68.68,62.88
Cc1cc(C(=O)Nc2ccc3c(c2)CC(=O)N3)c(C)o1,-13.69,14.07
Nc1nc(CNC(=O)CCCOc2ccccc2)n[nH]1,-4.482,-4.556
Cc1cc(NC(=O)NCc2cccc(C)n2)ccn1,-12.33,-8.249
COc1cc(CNC2CCN(C)CC2)cc2c1OCO2,-3.383,8.464
CCC1CN(CC(=O)N(C)C2CC2)CCS1 (stereo not drawn),10.51,25.78
COc1ccc(NC(=O)NCCN2CCOCC2)cc1,-0.1624,0.8814
O=C(OCc1cc(=O)n2ccsc2n1)c1cc(Cl)c[nH]1,2.422,-1.598
COCC(C)(N)C(N)=O (stereo not drawn),12.4,6.461
O=C(C1CCOC1)N1CCC(Oc2ccncc2)CC1 (stereo not drawn),0.9486,8.396
O=C(CN1CCOCC1)Nc1ccc(Br)cc1F,2.914,34.73
CN(C)C(=O)C1CCCN(C(=O)c2ccccc2O)C1 (stereo not drawn),-6.115,4.073
NCCNS(=O)(=O)c1cccc(OC(F)(F)F)c1,14.65,41.83
COCCn1cnnc1CN(C)Cc1ccc(Cl)o1,-0.5254,6.916
Cc1ccc(NC(=O)CCn2ccc(=O)[nH]c2=O)cc1,-11.83,1.367
COCC(=O)NCCc1ccccc1F,20.05,35.31
CCNC1CCN(c2ccncc2)CC1,7.769,15.48
Cc1cccc(NCC2CCN(CCS(C)(=O)=O)C2)n1 (stereo not drawn),11.17,4.709
CCNC(=O)NC1CCN(CC=C(C)C)CC1,-5.701,0.07619
CS(=O)(=O)CC1(CN2CCNC(=O)CC2)CCC1,-7.688,-5.97
CN1CC[C@H]2CN(C(=O)CCCc3cn[nH]c3)C[C@H]21,6.095,-0.2528
CCc1cccc(NC(=O)C2(N)CC2)c1,0.2123,-3.226
CC(CO)NS(=O)(=O)c1cc(N(C)C)ccc1Br (stereo not drawn),22.08,38.39
N#CC1(NC(=O)CN2CCOCC2)CCCCC1,3.856,-6.891
O=c1[nH]cnc2cccc(O)c12,50.78,-1.923
CCn1nnc2cc(C(=O)NCCCN(C)C)ccc21,9.019,13.37
CNC1CCN(Cc2ccccc2)C1=O (stereo not drawn),-0.3013,-2.381
O=C1C[C@H]2CC[C@@H](CN1)N2C(=O)c1ccc(F)c(O)c1,-17.34,-15.87
COCC1(S(=O)(=O)NCc2ccnc(OC)c2)CC1,14.65,18.33
CCOCCC(=O)N1c2ccccc2OCC1C (stereo not drawn),39.62,52.35
NC(=O)NC(=O)CCN1CCCc2c(Br)cccc2C1,54.08,81.98
CC(=O)c1ncc(Br)cc1F,0.7936,4.439
CC(=O)NCCCNc1ccnc2cc(Br)cnc12,-9.568,3.525
O=C(Cc1ccccc1O)NCC1(O)CCC1,8.322,8.442
Cn1cc(C(=O)NC2CCCOc3ccccc32)nn1 (stereo not drawn),-1.92,9.146
CCCN1CCN(Cc2cc(=O)n(C)c(=O)n2C)CC1,-11.1,-0.4766
Cc1nc(CCSc2nnc(C)n2CC(N)=O)cs1,-1.036,2.952
CNC(=O)c1nn(C)cc1NC(=O)C1CCCCC1,1.162,24.76
CNC1CCN(C)C1=O (stereo not drawn),-14.85,-6.558
CCc1nc(CNc2ncccc2S(N)(=O)=O)cs1,23.47,34.34

For reference, 8 entries once more:

- CN1CCC(NC(=O)c2cc(C3CC3)[nH]n2)CC1 | Mtb cholesterol medium: -30.19%; Mtb glucose medium: -13.17%
- CS(=O)(=O)CC1(CN2CCNC(=O)CC2)CCC1 | Mtb cholesterol medium: -7.688%; Mtb glucose medium: -5.97%
- O=C1CC(N2CCOCC2)C(=O)N1C1CCCC1 (stereo not drawn) | Mtb cholesterol medium: 13.79%; Mtb glucose medium: 8.226%
- O=C(Cc1ccccc1O)NCC1(O)CCC1 | Mtb cholesterol medium: 8.322%; Mtb glucose medium: 8.442%
- CCc1nc(CNc2ncccc2S(N)(=O)=O)cs1 | Mtb cholesterol medium: 23.47%; Mtb glucose medium: 34.34%
- COCCn1cnnc1CN(C)Cc1ccc(Cl)o1 | Mtb cholesterol medium: -0.5254%; Mtb glucose medium: 6.916%
- O=C1CCCN1CCN1CCCC(CO)(CC2CC2)C1 (stereo not drawn) | Mtb cholesterol medium: -6.111%; Mtb glucose medium: 13.07%
- NC(=O)NC(=O)CCN1CCCc2c(Br)cccc2C1 | Mtb cholesterol medium: 54.08%; Mtb glucose medium: 81.98%

Data taken from ChEMBL document CHEMBL3988442, “University of Dundee, Small-Polar-MMV Screening Library” (2021).